Among the data in publication PMC7686362, “Recent evolution of a TET-controlled and DPPA3/STELLA-driven pathway of passive DNA demethylation in mammals” (Nature Communications, 2020) are binding values, retold here.

Amino acid sequences for entries named in this document (tags omitted).
UniProt P13864: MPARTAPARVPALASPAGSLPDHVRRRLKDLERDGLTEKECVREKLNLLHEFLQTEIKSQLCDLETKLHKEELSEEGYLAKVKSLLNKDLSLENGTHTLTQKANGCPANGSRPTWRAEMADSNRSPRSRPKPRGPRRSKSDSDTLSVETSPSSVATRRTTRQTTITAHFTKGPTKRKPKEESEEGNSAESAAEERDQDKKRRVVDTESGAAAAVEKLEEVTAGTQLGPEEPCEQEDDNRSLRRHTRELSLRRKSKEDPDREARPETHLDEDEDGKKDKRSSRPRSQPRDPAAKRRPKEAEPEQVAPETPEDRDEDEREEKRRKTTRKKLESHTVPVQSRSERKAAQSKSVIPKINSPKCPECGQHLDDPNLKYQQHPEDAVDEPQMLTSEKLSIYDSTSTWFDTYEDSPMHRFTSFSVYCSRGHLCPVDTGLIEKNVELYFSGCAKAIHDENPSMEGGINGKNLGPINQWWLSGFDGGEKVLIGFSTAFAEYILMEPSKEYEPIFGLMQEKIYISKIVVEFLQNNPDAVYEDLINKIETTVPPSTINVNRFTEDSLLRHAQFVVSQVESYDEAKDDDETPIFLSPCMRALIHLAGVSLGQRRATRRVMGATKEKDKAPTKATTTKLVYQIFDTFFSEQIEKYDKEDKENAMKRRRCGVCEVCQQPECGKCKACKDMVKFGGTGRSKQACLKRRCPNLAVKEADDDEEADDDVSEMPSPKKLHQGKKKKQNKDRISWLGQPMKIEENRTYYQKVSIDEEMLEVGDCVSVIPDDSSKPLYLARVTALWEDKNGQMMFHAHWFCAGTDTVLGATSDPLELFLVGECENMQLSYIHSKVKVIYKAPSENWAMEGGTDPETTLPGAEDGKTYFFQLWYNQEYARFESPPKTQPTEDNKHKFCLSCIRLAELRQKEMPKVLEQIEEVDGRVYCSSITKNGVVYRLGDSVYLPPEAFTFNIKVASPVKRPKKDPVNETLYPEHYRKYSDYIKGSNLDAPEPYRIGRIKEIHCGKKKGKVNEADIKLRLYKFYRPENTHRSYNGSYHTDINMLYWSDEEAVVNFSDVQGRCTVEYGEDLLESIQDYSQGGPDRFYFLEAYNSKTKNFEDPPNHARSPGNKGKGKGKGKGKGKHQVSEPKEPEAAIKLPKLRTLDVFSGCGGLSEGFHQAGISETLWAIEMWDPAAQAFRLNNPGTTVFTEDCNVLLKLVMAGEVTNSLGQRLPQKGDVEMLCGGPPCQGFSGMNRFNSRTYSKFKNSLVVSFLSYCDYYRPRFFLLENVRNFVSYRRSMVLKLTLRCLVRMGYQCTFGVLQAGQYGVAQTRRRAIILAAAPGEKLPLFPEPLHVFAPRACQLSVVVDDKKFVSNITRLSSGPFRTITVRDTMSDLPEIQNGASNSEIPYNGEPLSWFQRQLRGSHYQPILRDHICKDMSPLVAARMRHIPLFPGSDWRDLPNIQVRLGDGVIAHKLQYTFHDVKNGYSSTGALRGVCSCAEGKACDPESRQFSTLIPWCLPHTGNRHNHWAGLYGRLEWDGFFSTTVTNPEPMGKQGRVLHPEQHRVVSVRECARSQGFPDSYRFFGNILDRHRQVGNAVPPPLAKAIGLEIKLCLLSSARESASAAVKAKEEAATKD

This assay concerns the target T1, 3xFLAG-DPPA3 (doxycycline-inducible, pSBtet-3xFLAG-Dppa3-IRES-DsRed-Express-PuroR) (mouse) (UniProt Q8QZY3).
T1 sequence: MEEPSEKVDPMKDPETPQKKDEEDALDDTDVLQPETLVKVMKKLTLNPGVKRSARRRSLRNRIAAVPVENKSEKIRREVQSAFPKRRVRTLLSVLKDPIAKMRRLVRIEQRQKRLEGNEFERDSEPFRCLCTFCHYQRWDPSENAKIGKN
Briefly: affinity purification with mass spectrometry; anti-FLAG versus control IgG immunoprecipitation from whole cell lysates of doxycycline-induced Dppa3-FLAG mouse ESCs crosslinked with 1% PFA (ChIP-MS); on-bead digestion, LC-MS/MS.

No constants are given. Whether binding was seen depends on the method and setting. In cells and extracts the contact can be indirect. A yes stands for co-enrichment or nearness to the bait. Other partners may have been found. Tags and fused reporters may be left off the sequences shown.

Regarding “DNMT1 (endogenous, mouse ESCs) (from UniProt P13864 1-1620)”, the binding entry is recorded as “binds”.
